Test results as given in the supplement of paper PMC10849652.
The other results are listed elsewhere or left out.

By UniProt entry, the sequences of proteins in these tests, tags left out. Where a name states a change or a piece, a line headed by the entry shows the natural chain unless it says otherwise.
UniProt P12883, whole entry, looked up: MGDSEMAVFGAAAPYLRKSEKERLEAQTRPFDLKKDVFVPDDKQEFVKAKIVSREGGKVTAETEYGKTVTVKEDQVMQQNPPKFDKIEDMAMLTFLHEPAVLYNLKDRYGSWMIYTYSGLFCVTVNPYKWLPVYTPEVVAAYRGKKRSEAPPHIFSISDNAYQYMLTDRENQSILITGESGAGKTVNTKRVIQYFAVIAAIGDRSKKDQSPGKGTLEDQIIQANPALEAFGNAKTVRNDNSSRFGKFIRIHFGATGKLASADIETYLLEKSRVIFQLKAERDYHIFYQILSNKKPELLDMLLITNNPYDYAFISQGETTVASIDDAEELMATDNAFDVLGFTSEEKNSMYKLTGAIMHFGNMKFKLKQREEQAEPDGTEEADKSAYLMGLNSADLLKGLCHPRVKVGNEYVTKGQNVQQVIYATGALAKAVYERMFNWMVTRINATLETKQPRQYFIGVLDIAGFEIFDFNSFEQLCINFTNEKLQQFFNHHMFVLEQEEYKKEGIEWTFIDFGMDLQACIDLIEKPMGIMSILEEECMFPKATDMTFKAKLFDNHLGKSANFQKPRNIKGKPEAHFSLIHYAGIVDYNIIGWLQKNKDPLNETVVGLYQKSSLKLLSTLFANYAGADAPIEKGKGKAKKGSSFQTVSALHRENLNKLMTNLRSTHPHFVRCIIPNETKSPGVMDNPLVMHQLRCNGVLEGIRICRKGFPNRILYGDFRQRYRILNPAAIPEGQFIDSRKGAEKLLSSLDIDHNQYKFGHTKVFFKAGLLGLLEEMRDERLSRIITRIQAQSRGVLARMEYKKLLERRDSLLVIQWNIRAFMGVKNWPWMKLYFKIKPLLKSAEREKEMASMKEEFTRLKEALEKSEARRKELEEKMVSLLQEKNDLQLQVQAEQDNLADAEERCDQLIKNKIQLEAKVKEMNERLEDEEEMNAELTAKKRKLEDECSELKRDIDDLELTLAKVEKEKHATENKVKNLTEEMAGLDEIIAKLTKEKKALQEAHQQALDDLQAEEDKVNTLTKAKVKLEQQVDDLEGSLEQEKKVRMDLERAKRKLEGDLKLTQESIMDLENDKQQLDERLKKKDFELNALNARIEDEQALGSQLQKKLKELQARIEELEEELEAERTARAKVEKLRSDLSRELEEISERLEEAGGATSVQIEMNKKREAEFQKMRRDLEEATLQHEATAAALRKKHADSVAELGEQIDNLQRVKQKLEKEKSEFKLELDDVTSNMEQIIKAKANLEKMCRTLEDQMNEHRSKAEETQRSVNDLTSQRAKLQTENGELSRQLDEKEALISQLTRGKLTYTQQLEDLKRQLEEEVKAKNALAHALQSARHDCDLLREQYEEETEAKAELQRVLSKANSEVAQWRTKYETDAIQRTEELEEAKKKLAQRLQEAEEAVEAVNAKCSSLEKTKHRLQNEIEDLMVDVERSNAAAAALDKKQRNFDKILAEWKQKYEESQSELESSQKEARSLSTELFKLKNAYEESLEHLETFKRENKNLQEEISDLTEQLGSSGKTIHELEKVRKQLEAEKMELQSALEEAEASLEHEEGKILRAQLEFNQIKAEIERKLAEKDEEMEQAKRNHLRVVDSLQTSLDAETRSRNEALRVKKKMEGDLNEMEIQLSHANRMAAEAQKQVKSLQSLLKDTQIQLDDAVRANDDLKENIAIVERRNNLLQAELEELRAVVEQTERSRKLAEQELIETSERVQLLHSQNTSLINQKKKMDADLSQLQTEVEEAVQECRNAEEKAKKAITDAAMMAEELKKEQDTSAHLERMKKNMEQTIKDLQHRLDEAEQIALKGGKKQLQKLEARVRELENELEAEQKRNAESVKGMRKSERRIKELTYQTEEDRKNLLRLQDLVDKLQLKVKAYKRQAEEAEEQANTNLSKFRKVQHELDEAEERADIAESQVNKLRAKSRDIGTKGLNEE
UniProt Q9UKX2, whole entry, looked up: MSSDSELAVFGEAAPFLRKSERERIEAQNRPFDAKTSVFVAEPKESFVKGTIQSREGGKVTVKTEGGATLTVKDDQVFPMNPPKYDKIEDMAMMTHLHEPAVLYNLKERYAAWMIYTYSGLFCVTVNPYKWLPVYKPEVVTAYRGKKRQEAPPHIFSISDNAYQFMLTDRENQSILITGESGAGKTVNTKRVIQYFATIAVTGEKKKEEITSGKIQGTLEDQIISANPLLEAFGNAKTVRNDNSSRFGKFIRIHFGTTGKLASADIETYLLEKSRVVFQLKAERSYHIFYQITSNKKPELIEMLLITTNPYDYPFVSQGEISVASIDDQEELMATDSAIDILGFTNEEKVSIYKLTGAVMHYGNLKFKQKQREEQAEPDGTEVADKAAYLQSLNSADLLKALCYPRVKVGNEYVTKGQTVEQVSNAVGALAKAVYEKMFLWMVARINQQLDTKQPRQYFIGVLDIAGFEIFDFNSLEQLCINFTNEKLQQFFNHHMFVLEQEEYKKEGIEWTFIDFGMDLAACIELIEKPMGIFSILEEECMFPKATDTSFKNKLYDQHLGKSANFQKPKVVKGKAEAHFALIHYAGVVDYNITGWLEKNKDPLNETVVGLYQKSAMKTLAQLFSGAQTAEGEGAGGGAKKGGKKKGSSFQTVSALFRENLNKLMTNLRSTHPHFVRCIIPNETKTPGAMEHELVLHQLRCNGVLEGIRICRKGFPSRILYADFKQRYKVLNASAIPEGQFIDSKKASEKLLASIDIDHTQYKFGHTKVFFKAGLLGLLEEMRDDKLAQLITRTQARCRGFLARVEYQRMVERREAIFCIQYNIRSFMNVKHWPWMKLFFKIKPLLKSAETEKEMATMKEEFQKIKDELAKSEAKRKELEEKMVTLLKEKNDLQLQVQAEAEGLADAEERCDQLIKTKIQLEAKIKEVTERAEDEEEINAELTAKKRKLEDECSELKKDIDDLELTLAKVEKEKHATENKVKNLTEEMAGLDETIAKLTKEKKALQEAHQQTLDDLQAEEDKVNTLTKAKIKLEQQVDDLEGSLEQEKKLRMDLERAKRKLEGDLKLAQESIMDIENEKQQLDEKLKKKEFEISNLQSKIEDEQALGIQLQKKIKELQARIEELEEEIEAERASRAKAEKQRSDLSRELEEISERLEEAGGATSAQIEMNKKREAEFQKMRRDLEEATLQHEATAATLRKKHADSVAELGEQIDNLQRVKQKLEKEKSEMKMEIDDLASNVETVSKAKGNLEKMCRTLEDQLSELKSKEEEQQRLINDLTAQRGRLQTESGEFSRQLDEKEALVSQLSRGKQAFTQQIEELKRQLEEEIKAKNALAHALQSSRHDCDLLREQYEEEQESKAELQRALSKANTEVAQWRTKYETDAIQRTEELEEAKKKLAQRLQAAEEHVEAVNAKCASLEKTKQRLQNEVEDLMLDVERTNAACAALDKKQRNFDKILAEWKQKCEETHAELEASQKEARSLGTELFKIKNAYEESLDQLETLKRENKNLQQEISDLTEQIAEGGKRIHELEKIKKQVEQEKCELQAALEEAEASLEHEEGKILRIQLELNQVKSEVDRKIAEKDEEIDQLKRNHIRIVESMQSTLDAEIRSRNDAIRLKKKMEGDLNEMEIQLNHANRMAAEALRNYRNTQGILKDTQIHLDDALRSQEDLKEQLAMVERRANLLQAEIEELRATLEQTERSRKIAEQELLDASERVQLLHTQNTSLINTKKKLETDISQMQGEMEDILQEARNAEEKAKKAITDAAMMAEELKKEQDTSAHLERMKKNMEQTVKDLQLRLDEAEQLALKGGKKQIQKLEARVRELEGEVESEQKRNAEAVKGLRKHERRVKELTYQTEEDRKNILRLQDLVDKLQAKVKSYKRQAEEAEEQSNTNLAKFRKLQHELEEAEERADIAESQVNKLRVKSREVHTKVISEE
UniProt Q96AH0: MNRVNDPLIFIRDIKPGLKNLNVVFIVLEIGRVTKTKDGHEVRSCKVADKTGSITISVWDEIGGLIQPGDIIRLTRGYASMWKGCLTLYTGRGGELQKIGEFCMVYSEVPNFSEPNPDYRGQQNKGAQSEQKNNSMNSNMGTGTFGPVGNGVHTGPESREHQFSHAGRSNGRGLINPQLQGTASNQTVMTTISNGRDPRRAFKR
UniProt Q15746, whole entry, looked up: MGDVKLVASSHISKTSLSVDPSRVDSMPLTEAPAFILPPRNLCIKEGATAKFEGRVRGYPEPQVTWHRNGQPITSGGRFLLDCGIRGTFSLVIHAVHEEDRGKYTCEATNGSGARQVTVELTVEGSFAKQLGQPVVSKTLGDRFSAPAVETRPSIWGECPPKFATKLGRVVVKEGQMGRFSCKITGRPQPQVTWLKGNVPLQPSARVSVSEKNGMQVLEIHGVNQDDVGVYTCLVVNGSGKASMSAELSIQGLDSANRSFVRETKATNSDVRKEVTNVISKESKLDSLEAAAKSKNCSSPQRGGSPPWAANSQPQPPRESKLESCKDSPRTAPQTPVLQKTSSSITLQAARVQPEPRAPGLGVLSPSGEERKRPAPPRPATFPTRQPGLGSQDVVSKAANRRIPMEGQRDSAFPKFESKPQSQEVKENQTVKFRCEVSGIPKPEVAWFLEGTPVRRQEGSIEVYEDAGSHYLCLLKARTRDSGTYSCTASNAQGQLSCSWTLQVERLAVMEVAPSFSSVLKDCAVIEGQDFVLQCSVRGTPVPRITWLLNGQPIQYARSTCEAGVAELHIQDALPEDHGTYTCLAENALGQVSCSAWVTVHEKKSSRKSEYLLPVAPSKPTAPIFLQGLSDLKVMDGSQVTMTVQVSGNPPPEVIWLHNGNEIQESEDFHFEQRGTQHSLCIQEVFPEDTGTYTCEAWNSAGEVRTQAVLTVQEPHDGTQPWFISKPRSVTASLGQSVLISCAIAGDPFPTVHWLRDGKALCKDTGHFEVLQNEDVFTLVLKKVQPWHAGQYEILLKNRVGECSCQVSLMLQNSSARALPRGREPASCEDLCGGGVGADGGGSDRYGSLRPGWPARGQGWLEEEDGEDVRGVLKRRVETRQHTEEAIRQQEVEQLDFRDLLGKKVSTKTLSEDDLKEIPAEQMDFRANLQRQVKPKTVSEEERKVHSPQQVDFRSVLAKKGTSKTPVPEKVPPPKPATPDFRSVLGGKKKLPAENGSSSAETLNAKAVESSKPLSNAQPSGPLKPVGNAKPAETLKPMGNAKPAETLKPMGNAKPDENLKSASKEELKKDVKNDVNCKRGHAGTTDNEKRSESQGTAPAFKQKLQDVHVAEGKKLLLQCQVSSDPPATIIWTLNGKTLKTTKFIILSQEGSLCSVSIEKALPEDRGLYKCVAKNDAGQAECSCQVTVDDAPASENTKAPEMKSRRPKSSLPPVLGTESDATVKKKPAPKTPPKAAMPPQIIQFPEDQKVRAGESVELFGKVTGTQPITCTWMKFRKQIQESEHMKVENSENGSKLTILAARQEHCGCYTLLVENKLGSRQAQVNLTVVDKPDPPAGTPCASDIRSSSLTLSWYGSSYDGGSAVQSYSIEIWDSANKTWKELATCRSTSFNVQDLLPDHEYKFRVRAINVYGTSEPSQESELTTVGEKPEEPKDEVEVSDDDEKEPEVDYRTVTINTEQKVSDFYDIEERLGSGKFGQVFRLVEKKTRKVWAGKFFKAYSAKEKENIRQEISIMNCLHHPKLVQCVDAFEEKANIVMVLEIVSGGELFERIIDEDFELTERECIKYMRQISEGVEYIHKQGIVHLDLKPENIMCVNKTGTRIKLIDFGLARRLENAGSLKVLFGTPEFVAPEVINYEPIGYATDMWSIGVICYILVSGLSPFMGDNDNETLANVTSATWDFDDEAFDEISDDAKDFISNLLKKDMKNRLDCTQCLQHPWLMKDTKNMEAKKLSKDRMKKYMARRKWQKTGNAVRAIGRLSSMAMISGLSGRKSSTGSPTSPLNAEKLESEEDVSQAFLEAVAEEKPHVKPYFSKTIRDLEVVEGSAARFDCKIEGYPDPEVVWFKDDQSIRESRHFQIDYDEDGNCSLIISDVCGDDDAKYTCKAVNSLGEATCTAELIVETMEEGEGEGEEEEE
UniProt P19105: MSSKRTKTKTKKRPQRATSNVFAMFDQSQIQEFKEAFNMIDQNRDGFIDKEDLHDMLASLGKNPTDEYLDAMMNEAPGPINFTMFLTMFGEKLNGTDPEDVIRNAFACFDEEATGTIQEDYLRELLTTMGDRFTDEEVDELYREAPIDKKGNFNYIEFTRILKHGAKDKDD
UniProt Q5TBK1: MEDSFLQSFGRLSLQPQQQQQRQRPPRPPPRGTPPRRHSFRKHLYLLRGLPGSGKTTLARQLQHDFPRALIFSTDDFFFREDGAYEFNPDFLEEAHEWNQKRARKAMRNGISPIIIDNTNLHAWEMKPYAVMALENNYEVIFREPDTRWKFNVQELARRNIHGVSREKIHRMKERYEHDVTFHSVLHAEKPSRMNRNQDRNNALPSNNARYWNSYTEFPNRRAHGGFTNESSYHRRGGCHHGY

Key:
Experiment in all cases: log2 fold change, soluble protein after heating vs DMSO (PISA); higher = thermal stabilisation; K562 lysate, 10 uM; active = over 0.2 and 3.5 SD of the protein, either way, in both replicates (recomputed)
[1] = compound: C#Cc1cccc(Nc2ncnc3cc(OCCOC)c(OCCOC)cc23)c1 [erlotinib]
Procedure, shortened: (§1)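 A 30 min treatment with 10 μM compound was applied to crude K562 extract at 1 mg/mL protein in PBS pH 7.4 with 1 mM MgCl2. Heating for 3 min spanned 48°C-58°C, after which aliquots were pooled, adjusted to 0.5% NP-40 at 4°C and spun at 21,000xg for 90 min. TMTpro 16plex LC-MS/MS of the supernatant, with channel sums equalised, gave values recorded as log-two fold change in thermal stability against solvent controls, from duplicates.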

[2] = compound: C1=CC(=CC=C1C2=NC3=C(N2)C=C(C=C3)C(=O)N)OC4=CC=C(C=C4)Cl
Procedure, shortened: as §1

[3] = compound: C1CCN(C1)C(=O)NC2=CC=CC(=C2)NC3=NC=C(C(=N3)NCCC4=CN=CN4)Br
Procedure, shortened: as §1

[4] = compound: C1CN(CCC1(CC2=CC=C(C=C2)Cl)N)C3=NC=NC4=C3C=CN4
Procedure, shortened: as §1

[5] = compound: CC(=O)c1cnc2ccc(-c3cc(Cl)c(O)c(Cl)c3)nc2c1N[C@H]1CC[C@H](CN(C)C)CC1
Procedure, shortened: as §1

[6] = compound: CC(C)C1=C2N=C(C=C(N2N=C1)NCC3=CC=CC=C3)NCCCCCCN
Procedure, shortened: as §1

[7] = compound: CC1=C(C(CC(=O)N1)C2=CC=C(C=C2)C(F)(F)F)C(=O)NC3=C(C=C4C(=C3)C=NN4)F
Procedure, shortened: as §1

[8] = compound: CC1=C(C2=C(C=C1)C(=O)C3=CC=CC=C3N2CCCN)C
Procedure, shortened: as §1

[9] = compound: CC1=C(C=C(C=C1)NC(=O)C2=CC(=CC=C2)C(C)(C)C#N)NC3=CC4=C(C=C3)N=CN(C4=O)C
Procedure, shortened: as §1

[10] = compound: CC1=CC=C(C=C1)SC2=C3C=C(SC3=CN=C2)C(=O)N
Procedure, shortened: as §1

[11] = compound: C1=CC2=NC=CN=C2C=C1/C=C/3\C(=O)NC(=O)S3
Procedure, shortened: as §1

[12] = compound: C=CC(=O)N1CCC[C@@H](n2nc(-c3ccc(Oc4ccccc4)cc3)c3c(N)ncnc32)C1 [ibrutinib]
Procedure, shortened: as §1

[13] = compound: C/C(=N\NC(=O)C1=CC(=CC=C1)S(=O)(=O)N2CCOCC2)/C3=C(C=CC(=C3)Cl)O
Procedure, shortened: as §1

[14] = compound: C1=CC2=C(C=CC(=C2)/C=C\3/C(=O)NC(=NCC4=CC=CS4)S3)N=C1
Procedure, shortened: as §1

[15] = compound: C1=CC=C(C=C1)C2=NC(=C(N2)C3=CC=NC=C3)C4=CC(=C(C=C4)Cl)O
Procedure, shortened: as §1

[16] = compound: C1=CC=C2C(=C1)C3=NNC4=CC=CC(=C43)C2=O
Procedure, shortened: as §1

[17] = compound: C1COCCN1CCN2C3=CC=CC=C3N=C2NC(=O)C4=CC(=CC=C4)[N+](=O)[O-] [IRAK-1-4 Inhibitor I]
Procedure, shortened: as §1

[18] = compound: CC(C)(C)Cn1c(N)nc2ccc(-c3[nH]c(C(C)(C)C)nc3-c3ccc(F)cc3)nc21 [ralimetinib]
Procedure, shortened: as §1

[19] = compound: CC(C)(O)CC(=O)NCCn1ccc2ncnc(Nc3ccc(Oc4cccc(C(F)(F)F)c4)c(Cl)c3)c21
Procedure, shortened: as §1

[20] = compound: CC1=C(C=C(C=C1)NC(=O)C2=CC(=CC=C2)N(C)C)NC(=O)C3=CC=C(C=C3)O
Procedure, shortened: as §1

Measured: log2 fold change

MUC5B (UniProt Q9HC84)
inactive: [1] -0.049 | [2] -0.075 | [3] -0.076 | [4] -0.277 | [5] -0.129 | [6] -0.059 | [7] 0.852 | [8] -0.115 | [9] 0.011 | [10] -0.108

NAMPT (UniProt C9JF35)
inactive: [1] 0.014 | [2] -0.054 | [5] -0.034 | [6] -0.019 | [10] -0.039

MYOF (UniProt Q9NZM1)
inactive: [8] 0.083

MYH7 (UniProt P12883)
inactive: [11] 0.545 | [12] 0.131

NAA16 (UniProt Q6N069)
inactive: [13] -0.036 | [14] -0.022 | [11] 0.027 | [15] -0.127 | [16] -0.206 | [3] 0.136 | [4] -0.038 | [17] 0.017 | [12] -0.047 | [5] 0.097 | [18] -0.179 | [19] 0.085 | [7] 0.092 | [8] 0.105 | [20] 0.147 | [10] 0.062

NCL (UniProt H7BY16)
inactive: [11] 0.051 | [12] -0.127 | [7] 0.015

NCLN isoform 2 (UniProt Q969V3)
inactive: [13] -0.132 | [14] -0.175 | [15] 0.349 | [16] 0.206 | [3] 0.024 | [4] -0.182 | [17] 0.13 | [18] -0.048 | [19] 0.047 | [9] 0.091 | [20] -0.102

MYH2 (UniProt Q9UKX2)
inactive: [11] 0.697 | [12] 0.761 | [8] 0.165

NACA (UniProt F8VNW4)
inactive: [5] -0.301 | [10] 0.128

NCF4 (UniProt Q15080)
inactive: [11] 0.019 | [3] -0.01 | [4] 0.052 | [12] 0.164 | [9] 0.074

NABP1 (UniProt Q96AH0)
inactive: [13] -0.045 | [14] -0.053 | [16] -0.238 | [3] 0.114 | [4] -0.048 | [7] 0.072

NCKAP5L (UniProt Q9HCH0)
inactive: [1] 0 | [2] 0.121 | [15] 0.01 | [3] -0.035 | [4] -0.03 | [17] 0.031 | [5] -0.221 | [18] -0.008 | [19] -0.036 | [6] -0.053 | [7] 0.141 | [8] 0.119 | [9] 0.043 | [20] -0.01 | [10] -0.122

MYLK (UniProt Q15746)
inactive: [13] -0.067 | [14] 0.027 | [11] 0.025 | [16] 0.345 | [3] 0.106 | [4] -0.262 | [12] 0.099 | [5] 0.226 | [7] 0.061 | [9] 0.228 | [10] 0.004

NARS1 (UniProt K7ENF0)
inactive: [9] -0.059

NACA2 (UniProt Q9H009)
inactive: [15] -0.058 | [17] -0.022 | [18] -0.034 | [19] -0.011 | [8] 0.03 | [20] 0.021

NAP1L4 (UniProt C9J6D1)
inactive: [5] 0.04 | [10] -0.141

5 neighbouring entries already listed, quoted:
NACA (UniProt F8VNW4)
inactive: [5] -0.301 | [10] 0.128

NCF4 (UniProt Q15080)
inactive: [11] 0.019 | [3] -0.01 | [4] 0.052 | [12] 0.164 | [9] 0.074

NABP1 (UniProt Q96AH0)
inactive: [13] -0.045 | [14] -0.053 | [16] -0.238 | [3] 0.114 | [4] -0.048 | [7] 0.072

NCKAP5L (UniProt Q9HCH0)
inactive: [1] 0 | [2] 0.121 | [15] 0.01 | [3] -0.035 | [4] -0.03 | [17] 0.031 | [5] -0.221 | [18] -0.008 | [19] -0.036 | [6] -0.053 | [7] 0.141 | [8] 0.119 | [9] 0.043 | [20] -0.01 | [10] -0.122

MYLK (UniProt Q15746)
inactive: [13] -0.067 | [14] 0.027 | [11] 0.025 | [16] 0.345 | [3] 0.106 | [4] -0.262 | [12] 0.099 | [5] 0.226 | [7] 0.061 | [9] 0.228 | [10] 0.004

(further entries)

MYH6 (UniProt P13533)
active: [12] 0.793
inactive: [1] 0.107 | [2] 0.08 | [11] 0.304 | [15] 0.029 | [3] -0.049 | [4] 0.115 | [17] 0.052 | [5] -0.017 | [18] 0.045 | [19] -0.157 | [6] 0.01 | [9] 0.047 | [20] -0.081 | [10] -0.172

MYL12A (UniProt P19105)
inactive: [1] 0.027 | [2] 0.078 | [6] 0.011

N4BP2L1 (UniProt Q5TBK1)
inactive: [13] -0.03 | [14] -0.177 | [11] -0.058 | [16] -0.137 | [3] -0.145 | [4] -0.191 | [12] -0.085 | [5] 0.002 | [7] -0.12 | [10] -0.129

NAP1L4 (UniProt C9JZI7)
inactive: [1] -0.197 | [2] -0.078 | [5] 0.095 | [6] 0.031 | [8] -0.065 | [10] -0.002

NASP isoform 2 (UniProt P49321)
inactive: [11] -0.135 | [12] -0.226 | [5] -0.001 | [10] 0

MXRA8 isoform 2 (UniProt Q9BRK3)
inactive: [11] -0.049 | [12] 0.023

MUS81 (UniProt Q96NY9)
inactive: [1] -0.088 | [2] 0.025 | [11] -0.13 | [15] 0.033 | [17] -0.081 | [12] -0.28 | [5] 0.236 | [18] -0.046 | [19] 0.028 | [6] 0.024 | [7] 0.054 | [8] 0.017 | [9] -0.044 | [20] 0.074 | [10] -0.17

MYLK3 (UniProt Q32MK0)
inactive: [1] 0.184 | [2] 0.036 | [11] -0.089 | [15] 0.17 | [3] -0.204 | [4] 0.18 | [17] -0.051 | [12] 0.088 | [5] -0.058 | [18] 0.04 | [19] 0.026 | [6] 0.081 | [7] 0.089 | [9] -0.021 | [20] 0.168 | [10] 0.267

NAB1 (UniProt Q13506)
inactive: [1] -0.014 | [2] 0.392 | [11] -0.081 | [15] -0.026 | [17] 0.107 | [12] -0.105 | [18] 0.095 | [19] -0.208 | [6] 0.107 | [7] -0.016 | [8] -0.024 | [9] 0.162 | [20] 0.16

NAP1L1 (UniProt H0YHC3)
inactive: [5] -0.106 | [10] 0.149
